PubChem BioAssay AID1053208 | Peter MacCallum Cancer Centre | 2014
Purpose: 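Find knock-downs that sensitise mouse osteosarcoma cells to doxorubicin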 (primary screen). System: mouse osteosarcoma cells, early-passage culture from an engineered mouse model of fibroblastic bone tumour. Reagent: siRNA pool against mouse genes, 40 nM. Duration: about 120 h (48 h before drug, then 72 h with drug). Conditions: doxorubicin 100 nM for 72 h, roughly 30-40% inhibitory dose. Measurement: 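Luminescent ATP signal taken as viability with or without 100 nM doxorubicin for 72 h; mean of two wells set against non-targeting siRNA and turned into robust z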. Scale: viability z-score with doxorubicin: higher = more viable cells under doxorubicin; viability z-score without drug: higher = more viable cells with knock-down alone. Rule for the call: 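Called active if knock-down leaves viability unchanged without drug (z within -2 to 2) but lowers it with doxorubicin (z at or under -2)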.
This is a random part of about 17,000 deposited reagents. Of all reagents, 788 (4.7%) were called active. 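Calls rest on z-score classes alone; an extra cut-off of viability at most 70% of control was not applied to them.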 Unmarked entries are inactive. Reagents against one gene are numbered here. Not all columns of the deposit are shown.

Gpsm2 | combined z-score class = no change with or without drug; viability z-score with doxorubicin = 0.34; viability z-score without drug = 0.51
Fkrp | combined z-score class = no change with or without drug; viability z-score with doxorubicin = -0.34; viability z-score without drug = 0.84
1700001O22Rik | combined z-score class = no change with or without drug; viability z-score with doxorubicin = -1.12; viability z-score without drug = 0.34
Klra12 | combined z-score class = high cell count without drug only; viability z-score with doxorubicin = 1.12; viability z-score without drug = 2.36
Cep295nl | combined z-score class = no change with or without drug; viability z-score with doxorubicin = 0.9; viability z-score without drug = 0.51
Fank1 | combined z-score class = no change with or without drug; viability z-score with doxorubicin = -0.34; viability z-score without drug = 0.17
Mri1 | combined z-score class = no change with or without drug; viability z-score with doxorubicin = -1.46; viability z-score without drug = 0.51
Plin4 | combined z-score class = no change with or without drug; viability z-score with doxorubicin = -1.91; viability z-score without drug = 0
Ddx54 | combined z-score class = no change with or without drug; viability z-score with doxorubicin = 0.67; viability z-score without drug = 0.84
Ackr3 | combined z-score class = no change with or without drug; viability z-score with doxorubicin = -0.11; viability z-score without drug = -0.84
Nfic #1 | combined z-score class = no change with or without drug; viability z-score with doxorubicin = 0.11; viability z-score without drug = -0.51
Nfic #2 | combined z-score class = no change with or without drug; viability z-score with doxorubicin = 1.01; viability z-score without drug = 0.34
Ntrk2 | combined z-score class = no change with or without drug; viability z-score with doxorubicin = -0.22; viability z-score without drug = -0.84
Hells | combined z-score class = no change with or without drug; viability z-score with doxorubicin = 0.67; viability z-score without drug = 0.84
Mdp1 | combined z-score class = no change with or without drug; viability z-score with doxorubicin = -1.57; viability z-score without drug = -0.17
Cdkn2a | combined z-score class = no change with or without drug; viability z-score with doxorubicin = -0.56; viability z-score without drug = -0.84
Chrnb1 | combined z-score class = no change with or without drug; viability z-score with doxorubicin = 1.12; viability z-score without drug = 0.67
Qsox1 | combined z-score class = no change with or without drug; viability z-score with doxorubicin = -1.57; viability z-score without drug = 0.51
Fam163a | combined z-score class = no change with or without drug; viability z-score with doxorubicin = -1.01; viability z-score without drug = -0.51
Gltp | combined z-score class = no change with or without drug; viability z-score with doxorubicin = -0.56; viability z-score without drug = -0.51
Ndufv3 | combined z-score class = no change with or without drug; viability z-score with doxorubicin = 1.35; viability z-score without drug = 0.17
Wfdc5 | combined z-score class = no change with or without drug; viability z-score with doxorubicin = 0.9; viability z-score without drug = 0.17
Dgke | combined z-score class = no change with or without drug; viability z-score with doxorubicin = 0; viability z-score without drug = -1.18
Ube2q1 | combined z-score class = no change with or without drug; viability z-score with doxorubicin = -1.57; viability z-score without drug = 0
Nod1 | combined z-score class = no change with or without drug; viability z-score with doxorubicin = 0.9; viability z-score without drug = 1.01
Rhpn1 | combined z-score class = no change with or without drug; viability z-score with doxorubicin = 0.22; viability z-score without drug = 0.17
Fmr1nb | combined z-score class = no change with or without drug; viability z-score with doxorubicin = 0.79; viability z-score without drug = 0.17
Rps16 | combined z-score class = low cell count with and without drug; viability z-score with doxorubicin = -5.17; viability z-score without drug = -5.56
Scp2 | combined z-score class = no change with or without drug; viability z-score with doxorubicin = -1.12; viability z-score without drug = -0.84
Fam107b | combined z-score class = no change with or without drug; viability z-score with doxorubicin = -0.11; viability z-score without drug = 0.17
Cep170 | combined z-score class = no change with or without drug; viability z-score with doxorubicin = 1.12; viability z-score without drug = -0.84
Chst2 | combined z-score class = no change with or without drug; viability z-score with doxorubicin = 1.69; viability z-score without drug = 0.84
Shc4 | combined z-score class = no change with or without drug; viability z-score with doxorubicin = 0; viability z-score without drug = 0.34
AU021107 | combined z-score class = no change with or without drug; viability z-score with doxorubicin = -0.9; viability z-score without drug = -0.51
Slc72a1 | combined z-score class = high cell count with doxorubicin only; viability z-score with doxorubicin = 2.02; viability z-score without drug = 1.52
AI597479 | combined z-score class = no change with or without drug; viability z-score with doxorubicin = -0.34; viability z-score without drug = -1.85
